Data from patent US12102631B2, “Quinolylnitrones for the treatment and prevention of a cerebral stroke or ischaemia” (ISQUAEMIA BIOTECH, S.L., priority 2018, dated 2024).
Some results were stated once for a whole list of compounds, not compound by compound.

System: primary neuronal cultures from rat cerebral cortex
Test: Neuroprotection (MTT cell viability) in primary neuronal cultures exposed to oxygen-glucose deprivation (OGD)
Assay type: cell-based
Conditions: 24 h recovery after 4 h OGD; concentrations as stated or in FIG. 4
Experimental: Primary neuronal cultures. Primary neuronal cultures from rat cerebral cortex were prepared as previously described.^54 All procedures associated with animal experiments were approved by the Ethics Committee of the Hospital Ramón y Cajal, Madrid (Spain). Cell suspensions from cerebral cortex were prepared from 16- to 17-day-old Sprague-Dawley rat embryos. Living cells in cell suspension were counted by trypan blue exclusion method. Cells were seeded on plastic multidishes precoated with 0.05 mg/mL poly-D-lysine at a density of 2.5×10^5 cells/cm^2 and were kept at 37° C. in a 6.5% CO2 atmosphere in high glucose Dulbecco's medium supplemented with 15% heat-inactivated (56° C. for 30 min) foetal calf serum. After 24 h, cultured cells were […] to induce experimental ischemia.^23 Cultured cells were washed and placed in glucose-free Dulbecco's medium (bubbled with 95% N2/5% CO2 for 30 min), and maintained in a humidified hypoxia chamber equipped with an oxygen and carbon dioxide control unit (Biospherix) at 6.5% CO2 and <0.1% O2 in N2 at 37° C. Cells were exposed to OGD for a period of 4 h (OGD 4 h). At the end of the OGD period, culture medium was replaced with oxygenated serum-free medium, and cells were placed and maintained in the normoxic incubator for 24 h to recovery (R24 h). In the neuroprotection experiments, the compounds were added at the onset of recovery period. Control cultures in Dulbecco's medium containing glucose were kept in the normoxic incubator for the same period of time as the OGD, and then medium (Dulbecco's/Ham's F12, 1:1 [vol/vol], 5 mg/mL glucose, 2 mM L-glutamine, and 1 mM sodium pyruvate, and supplemented with 100 μg/mL transferrin, 100 μM putrescine, 20 nM progesterone, 30 nM sodium selenite and 5 μg/mL insulin). Here, 6-7 day old cultured neurons were used in the experiments, and contained 90% β-III-tubulin-positive mature neurons, as described previously.^55
Exposure of cell cultures to oxygen-glucose deprivation and treatments. Primary neuronal cultures were exposed to […]. Control experiments included the same amounts of vehicle (final concentration<0.5% ethanol). Nitrone 2 was used as reference compound for neuroprotection. The experimental procedures were blindly performed, assigning a random order to each assayed nitrone. Nitrones were analyzed independently four-eight times with different batch of cultures and each experiment was run in quadruplicate.
Cell viability assay. Cell viability was evaluated by quantification of living, metabolically active cells, as determined by a colorimetric assay using the photometric reduction of 3-(4,5-dimethylthiazol-2-yl)-2,5-diphenyl tetrazolium bromide (MTT) (Roche) to a blue formazan product. The assay of living, metabolically active cells was performed by incubating with 0.2 mg/mL MTT in the culture medium for 1.5 h in an incubator at 37° C. in a 6.5% CO2 atm. After the incubation period, cells were lysed with an equal volume of 10 mM HCl and 10% SDS overnight. Values were quantified by absorbance (test 595 nm, reference 690 nm). Decreased MTT activity denotes impairment of mitochondrial function and is considered to be an index of cell damage. Primary neuronal cultures were collected at times indicated for MTT determination.
Neuroprotection of compounds was evaluated by a cell viability assay. The neuroprotective effect of the compounds 5-32 was evaluated on primary neuronal cultures from cerebral cortex subjected to oxygen-glucose deprivation (OGD) to induce experimental ischemia. Afterwards, cultured neurons were placed and kept in normoxic and normoglycemic conditions to recovery. […]

Row | SMILES | neuronal viability compared with R24 h (in words)
1 | Cc1ccc2nc(Cl)c(/C=[N+](\[O-])c3ccccc3)cc2c1 [Compound 11, (Z)-1-(2-Chloro-6-methylquinolin-3-yl)-N-phenylmethanimine oxide] | no increase in neuronal viability
2 | Cc1ccc2ncc(/C=[N+](\[O-])Cc3ccccc3)cc2c1 [Compound 12, (Z)—N-Benzyl-1-(6-methylquinolin-3-yl)methanimine oxide] | increased neuronal viability at the indicated concentrations in FIG. 4, but without statistical significance
3 | Cc1ccc2[nH]c(=O)c(/C=[N+](\[O-])Cc3ccccc3)cc2c1 [Compound 13, (Z)—N-Benzyl-1-(6-methyl-2-oxo-1,2-dihydroquinolin-3-yl)methanimine oxide] | increased neuronal viability at the indicated concentrations in FIG. 4, but without statistical significance
4 | COc1nc2ccc(C)cc2cc1/C=[N+](\[O-])Cc1ccccc1 [Compound 14, (Z)—N-Benzyl-1-(2-methoxy-6-methylquinolin-3-yl)methanimine oxide] | no increase in neuronal viability
5 | CNc1nc2ccc(C)cc2cc1/C=[N+](\[O-])Cc1ccccc1 [Compound 15, (Z)—N-Benzyl-1-(6-methyl-2-(methylamino)quinolin-3-yl)methanimine oxide] | no increase in neuronal viability
6 | Cc1ccc2nc(N(C)C)c(/C=[N+](\[O-])Cc3ccccc3)cc2c1 [Compound 16, (Z)—N-Benzyl-1-(2-(dimethylamino)-6-methylquinolin-3-yl)methanimine oxide] | increased neuronal viability at the indicated concentrations in FIG. 4, but without statistical significance
7 | Cc1ccc2[nH]c(=O)c(/C=[N+](\[O-])C(C)(C)C)cc2c1 [Compound 17, (Z)—N-tert-Butyl-1-(6-methyl-2-oxo-1,2-dihydroquinolin-3-yl)methanimine oxide] | increased neuronal viability at the indicated concentrations in FIG. 4, but without statistical significance
8 | CC(C)(C)/[N+]([O-])=C/c1cc2ccccc2nc1Cl [Compound 18, (Z)—N-t-Butyl-1-(2-chloroquinolin-3-yl)methanimine oxide] | no increase in neuronal viability
9 | [O-]/[N+](=C\c1cc2ccccc2nc1Cl)Cc1ccccc1 [Compound 20, (Z)—N-Benzyl-1-(2-chloroquinolin-3-yl)methanimine oxide] | no increase in neuronal viability
10 | COc1nc2ccccc2cc1/C=[N+](\[O-])Cc1ccccc1 [Compound 21, (Z)—N-Benzyl-1-(2-methoxyquinolin-3-yl)methanimine oxide] | no increase in neuronal viability
11 | COc1ccc2nc(Cl)c(/C=[N+](/C)[O-])cc2c1 [Compound 22, (Z)-1-(2-Chloro-6-methoxyquinolin-3-yl)-N-methylmethanimine oxide] | no increase in neuronal viability
12 | COc1ccc2nc(Cl)c(/C=[N+](\[O-])Cc3ccccc3)cc2c1 [Compound 24, (Z)—N-Benzyl-1-(2-chloro-6-methoxyquinolin-3-yl)methanimine oxide] | increased neuronal viability at the indicated concentrations in FIG. 4, but without statistical significance
13 | [O-]/[N+](=C\c1cc2cc(O)ccc2nc1Cl)Cc1ccccc1 [Compound 25, (Z)—N-Benzyl-1-(2-chloro-6-hydroxyquinolin-3-yl)methanimine oxide] | no increase in neuronal viability
14 | [O-]/[N+](=C\c1cc2cc(Cl)ccc2nc1Cl)Cc1ccccc1 [Compound 26, (Z)—N-Benzyl-1-(2,6-dichloroquinolin-3-yl)methanimine oxide] | increased neuronal viability at the indicated concentrations in FIG. 4, but without statistical significance
15 | COc1ccc2cc(/C=[N+](\[O-])Cc3ccccc3)c(Cl)nc2c1 [Compound 27, (Z)—N-Benzyl-1-(2-chloro-7-methoxyquinolin-3-yl)methanimine oxide] | increased neuronal viability at the indicated concentrations in FIG. 4, but without statistical significance
16 | COc1ccc(OC)c2nc(Cl)c(/C=[N+](\[O-])Cc3ccccc3)cc12 [Compound 28, (Z)—N-Benzyl-1-(2-chloro-5,8-dimethoxyquinolin-3-yl)methanimine oxide] | increased neuronal viability at the indicated concentrations in FIG. 4, but without statistical significance
17 | CC(C)(C)/[N+]([O-])=C/c1cc2ccccc2n2nnnc12 [Compound 31, (Z)—N-tert-Butyl-1-(tetrazolo[1,5-a]quinolin-4-yl)methanimine oxide] | no increase in neuronal viability
